{"sequences": {"note": "Chains of the proteins cited; added tags and fusions are not shown.", "UniProt Q96EB6": "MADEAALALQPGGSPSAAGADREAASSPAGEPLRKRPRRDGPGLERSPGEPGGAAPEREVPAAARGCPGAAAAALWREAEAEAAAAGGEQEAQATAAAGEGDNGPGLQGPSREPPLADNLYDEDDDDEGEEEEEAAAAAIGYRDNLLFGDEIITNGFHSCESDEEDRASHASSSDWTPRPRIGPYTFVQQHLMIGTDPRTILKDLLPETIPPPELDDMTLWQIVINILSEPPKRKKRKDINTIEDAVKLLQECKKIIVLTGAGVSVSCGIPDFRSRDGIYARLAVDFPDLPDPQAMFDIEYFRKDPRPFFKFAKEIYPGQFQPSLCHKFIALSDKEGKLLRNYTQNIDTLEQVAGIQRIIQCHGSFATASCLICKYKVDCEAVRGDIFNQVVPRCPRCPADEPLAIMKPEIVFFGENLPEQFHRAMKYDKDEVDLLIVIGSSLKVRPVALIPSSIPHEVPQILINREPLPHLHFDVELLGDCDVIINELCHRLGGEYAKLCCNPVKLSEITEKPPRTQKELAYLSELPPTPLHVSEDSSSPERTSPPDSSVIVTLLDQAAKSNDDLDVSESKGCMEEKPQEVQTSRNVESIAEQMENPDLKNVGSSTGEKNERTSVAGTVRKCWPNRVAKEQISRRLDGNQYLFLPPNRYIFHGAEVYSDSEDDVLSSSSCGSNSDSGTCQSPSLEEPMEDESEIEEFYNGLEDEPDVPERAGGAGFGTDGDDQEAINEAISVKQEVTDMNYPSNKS"}, "source": "paper PMC12681700", "key": {"[1]": {"molecular_target": "NAD-dependent protein deacetylase sirtuin-1 (SIRT1), in GM12878 cells (human (endogenous in GM12878)) (UniProt Q96EB6)", "assay": "co-IP; in GM12878 cells and in primary mouse B cells; which protein was precipitated is not told"}, "[2]": {"molecular_target": "T1, NAD-dependent protein deacetylase sirtuin-1 (SIRT1), in primary mouse B cells (mouse (endogenous in primary mouse B cells)) (UniProt Q923E4)", "T1 sequence": "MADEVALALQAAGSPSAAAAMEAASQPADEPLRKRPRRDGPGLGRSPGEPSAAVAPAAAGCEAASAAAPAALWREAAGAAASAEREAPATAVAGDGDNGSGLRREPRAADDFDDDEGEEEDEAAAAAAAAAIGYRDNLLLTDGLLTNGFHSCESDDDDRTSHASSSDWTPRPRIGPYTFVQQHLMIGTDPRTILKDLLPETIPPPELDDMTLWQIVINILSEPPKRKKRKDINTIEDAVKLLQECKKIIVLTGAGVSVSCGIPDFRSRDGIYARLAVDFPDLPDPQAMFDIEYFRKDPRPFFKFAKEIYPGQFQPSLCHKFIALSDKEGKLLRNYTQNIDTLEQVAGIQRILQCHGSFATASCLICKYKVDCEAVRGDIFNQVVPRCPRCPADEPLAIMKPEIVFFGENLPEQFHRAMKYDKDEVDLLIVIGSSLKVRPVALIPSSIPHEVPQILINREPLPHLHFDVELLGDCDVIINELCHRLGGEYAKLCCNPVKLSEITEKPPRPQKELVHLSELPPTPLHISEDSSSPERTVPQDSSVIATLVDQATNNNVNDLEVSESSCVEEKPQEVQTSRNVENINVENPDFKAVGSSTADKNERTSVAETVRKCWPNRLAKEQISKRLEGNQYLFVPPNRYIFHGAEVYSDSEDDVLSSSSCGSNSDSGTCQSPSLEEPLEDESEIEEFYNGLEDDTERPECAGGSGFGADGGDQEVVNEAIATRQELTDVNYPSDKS", "assay": "co-IP; in GM12878 cells and in primary mouse B cells; which protein was precipitated is not told"}}, "note": "Results are given in words; binding and its absence hold for the method and conditions named. In cells and extracts the contact can be indirect. Some binding calls cover weakened binding; strength is not graded here."}
{"binder": "sentrin-specific protease 7 (SENP7), in GM12878 cells (enzyme, UniProt Q9BQF6 1-1050) MDKRKLGRRPSSSEIITEGKRKKSSSDLSEIRKMLNAKPEDVHVQSPLSKFRSSERWTLPLQWERSLRNKVISLDHKNKKHIRGCPVTSKSSPERQLKVMLTNVLWTDLGRKFRKTLPRNDANLCDANKVQSDSLPSTSVDSLETCQKLEPLRQSLNLSERIPRVILTNVLGTELGRKYIRTPPVTEGSLSDTDNLQSEQLSSSSDGSLESYQNLNPHKSCYLSERGSQRSKTVDDNSAKQTAHNKEKRRKDDGISLLISDTQPEDLNSGSRGCDHLEQESRNKDVKYSDSKVELTLISRKTKRRLRNNLPDSQYCTSLDKSTEQTKKQEDDSTISTEFEKPSENYHQDPKLPEEITTKPTKSDFTKLSSLNSQELTLSNATKSASAGSTTETVENSNSIDIVGISSLVEKDENELNTIEKPILRGHNEGNQSLISAEPIVVSSDEEGPVEHKSSEILKLQSKQDRETTNENESTSESALLELPLITCESVQMSSELCPYNPVMENISSIMPSNEMDLQLDFIFTSVYIGKIKGASKGCVTITKKYIKIPFQVSLNEISLLVDTTHLKRFGLWKSKDDNHSKRSHAILFFWVSSDYLQEIQTQLEHSVLSQQSKSSEFIFLELHNPVSQREELKLKDIMTEISIISGELELSYPLSWVQAFPLFQNLSSKESSFIHYYCVSTCSFPAGVAVAEEMKLKSVSQPSNTDAAKPTYTFLQKQSSGCYSLSITSNPDEEWREVRHTGLVQKLIVYPPPPTKGGLGVTNEDLECLEEGEFLNDVIIDFYLKYLILEKASDELVERSHIFSSFFYKCLTRKENNLTEDNPNLSMAQRRHKRVRTWTRHINIFNKDYIFVPVNESSHWYLAVICFPWLEEAVYEDFPQTVSQQSQAQQSQNDNKTIDNDLRTTSTLSLSAEDSQSTESNMSVPKKMCKRPCILILDSLKAASVQNTVQNLREYLEVEWEVKLKTHRQFSKTNMVDLCPKVPKQDNSSDCGVYLLQYVESFFKDPIVNFELPIHLEKWFPRHVIKTKREDIRELILKLHLQQQKGSSS", "values": [{"measurement": "binding", "setting": "[1]", "value": "binds"}]}
{"binder": "sentrin-specific protease 7 (SENP7), in primary mouse B cells (enzyme, UniProt Q8BUH8 1-1037) MDRARPGRRRASSEIVTEGKRKKSSPADLQKITKLLTVKSEDVLAQSPLSKLRGSECWWTRSLRNKVICLDHKKPKAARGCPPKGLPKRHLRVMLTNVLWTDLGREFRKTLPRKDANLCAPSKVQSDSLPSTSVDSIETCQRLDPLHQSLNLSERTPRVILTDIRQTELGRKYLKIPPVTEASLSDTANLKSEQLSSSSDGSLESCQSVNHHKSFLSESGPKPSRTGDVPAKEAACGGQKQGDDGGVTPEMAAPHPKDFNTGNKGCDYLEEGTSNKNTSYSYSEMDHTPVSRKRKKRGRSNFHDSHNSKTSLDKPTEHTKEEENDSSVSRKLEESGEDSHQDPAPPEGLAPESLESEATNLRSFAAGQEPDASAASGRASSPNKSLESSASSEVSENSSVAVKGEALTLKEASPPGGSSEESQLLISAEPIVVSSDEEGPVEHKNSVILKLQPPHEIMSENQGTSDPQLSELTLGACESVQVTSELFPYNPDVENISCIKSNSEMDLKLDFIFTCVYIGKIKGTPKGCVTFTKKYIKIPFQVSTNEISLTVDTARLKRFGLWESKDEDHSKRSHAILFLWLSSDYLQDIQTQLENPMLSQQSKANEFIFLELNSSISQREELKLKDIMMEISTKNGNLHLSCPLPWVQALPLFQDLSPQEISFLHYYYASASALPTAAGADMKKKSVSQPSNSDTIKPTYTFLHKQSSGCYSLSITSSPEEEWQEVRNTGPVQKLIVYPPPPTKGGLGVTNEDLECLEEGEFLNDVIIDFYLKYLLLEKASDELVERSHIFSSFFYKCLTRKENNLTEDNPDLSVAQRRHRRVRTWTRHINIFNKDYIFVPVNESSHWYLAVICFPWLEEAVYEDCPQTVSQQFQGQQSQHDHKMTDNDPHTTSTVSTSAEDSQSTEVNMSVPKKMCKRPCILILDSLKAASIQNTVQNLREYLEVEWEVKRKTHREFSKTNMVDLCPKVPKQDNSSDCGVYLLQYVESFFQDPIVNFELPIHLEKWFPRHVIKTKREDIRELILKLHLQQQKGGSC", "values": [{"measurement": "binding", "setting": "[2]", "value": "binds"}]}
